## Drug screen on melanoma cell lines: apoptosis marker

Data from the primary screen of doi:10.1371/journal.pone.0140310, rounded.

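Human melanoma cell lines in 1,536-well plates were treated with two drugs together for 72 h, then fixed, stained and imaged. Values are the share of nuclei positive for cleaved PARP as a percentage of the same share in the DMSO control: 100 is the control level, higher means more apoptosis. Every drug was used at one fixed concentration, the higher of two screened. No replicate spread is given; individual values may be noisy. Basal and induced levels differ widely between cell lines.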 This is part of the screen, not chosen by result.

First drug in all entries: GW2580, 5 µM, COc1ccc(COc2ccc(Cc3cnc(N)nc3N)cc2OC)cc1

{"partner": "COc1cc([C@@H]2c3cc4c(cc3[C@@H](O[C@@H]3O[C@@H]5CO[C@@H](C)O[C@H]5[C@H](O)[C@H]3O)[C@H]3COC(=O)[C@H]23)OCO4)cc(OC)c1O at 0.1 µM", "MEL-HO": 41.9, "RVH-421": 77.0, "A101D": 38.3, "WM115": 121, "IPC-298": 166}
{"partner": "O=c1[nH]nc(Sc2ncc([N+](=O)[O-])s2)n1-c1ccc2c(c1)OCCO2 at 1 µM", "MEL-HO": 144, "RVH-421": 27.3, "A101D": 66.0, "WM115": 46.3, "IPC-298": 37.1}
{"partner": "C[As](C)SC[C@H](NC(=O)CC[C@H](N)C(=O)O)C(=O)NCC(=O)O at 2 µM", "MEL-HO": 157, "RVH-421": 55.6, "A101D": 303, "WM115": 59.7, "IPC-298": 44.9}
{"partner": "CCCS(=O)(=O)Nc1ccc(F)c(C(=O)c2c[nH]c3ncc(Cl)cc23)c1F at 0.4 µM", "MEL-HO": 89.0, "RVH-421": 202, "A101D": 142, "WM115": 68.4, "IPC-298": 53.0}
{"partner": "NC(=O)c1ccc(N(C(N)=O)c2c(F)cccc2F)nc1-c1ccc(F)cc1F at 2 µM", "MEL-HO": 110, "RVH-421": 120, "A101D": 156, "WM115": 85.5, "IPC-298": 29.4}
{"partner": "Cc1cn(-c2cc(NC(=O)c3ccc(C)c(Nc4nccc(-c5cccnc5)n4)c3)cc(C(F)(F)F)c2)cn1 at 1 µM", "MEL-HO": 83.5, "RVH-421": 55.1, "A101D": 35.7, "WM115": 30.1, "IPC-298": 37.7}
{"partner": "C[C@]12O[C@H](C[C@]1(O)CO)n1c3ccccc3c3c4c(c5c6ccccc6n2c5c31)CNC4=O at 0.02 µM", "MEL-HO": 79.3, "RVH-421": 60.0, "A101D": 78.3, "WM115": 31.7, "IPC-298": 50.6}
{"partner": "Nc1ncn([C@H]2C[C@H](O)[C@@H](CO)O2)c(=O)n1 at 0.5 µM", "MEL-HO": 125, "RVH-421": 191, "A101D": 201, "WM115": 69.2, "IPC-298": 63.9}
{"partner": "C#Cc1cccc(Nc2ncnc3cc(OCCOC)c(OCCOC)cc23)c1 at 4 µM", "MEL-HO": 113, "RVH-421": 96.3, "A101D": 187, "WM115": 218, "IPC-298": 132}
{"partner": "Cc1cc(Nc2cc(N3CCN(C)CC3)nc(Sc3ccc(NC(=O)C4CC4)cc3)n2)n[nH]1 at 0.03 µM", "MEL-HO": 159, "RVH-421": 88.1, "A101D": 103, "WM115": 79.2, "IPC-298": 78.8}
{"partner": "O=C(O)C(=O)Nc1sc2c(c1C(=O)O)CCNC2 at 8.33 µM", "MEL-HO": 46.7, "RVH-421": 90.6, "A101D": 54.7, "WM115": 167, "IPC-298": 94.0}
{"partner": "CCCCCCCCCCCC1=C(O)C(=O)C=C(O)C1=O at 6 µM", "MEL-HO": 93.4, "RVH-421": 213, "A101D": 141, "WM115": 56.0, "IPC-298": 174}
{"partner": "O=C(/C=C/c1cccnc1)NCCCCC1CCN(C(=O)c2ccccc2)CC1 at 0.05 µM", "MEL-HO": 82.2, "RVH-421": 287, "A101D": 139, "WM115": 124, "IPC-298": 356}
{"partner": "NC(=O)Nc1cc(-c2cccc(F)c2)sc1C(=O)N[C@H]1CCCNC1 at 0.1 µM", "MEL-HO": 51.0, "RVH-421": 40.0, "A101D": 245, "WM115": 132, "IPC-298": 140}
{"partner": "CS(=O)(=O)CCNCc1ccc(-c2ccc3ncnc(Nc4ccc(OCc5cccc(F)c5)c(Cl)c4)c3c2)o1 at 4 µM", "MEL-HO": 226, "RVH-421": 57.6, "A101D": 121, "WM115": 69.3, "IPC-298": 218}
{"partner": "COc1ccc2c(c1)CCC1C2CCC2(C)C(NCCCCCCN3C(=O)C=CC3=O)CCC12 (stereo not given) at 2 µM", "MEL-HO": 148, "RVH-421": 45.5, "A101D": 234, "WM115": 63.8, "IPC-298": 155}
{"partner": "O=C(O)c1ccc(-c2c[nH]c3ncc(-c4ccccc4)cc23)cc1C1CCCC1 at 0.8 µM", "MEL-HO": 27.6, "RVH-421": 108, "A101D": 39.4, "WM115": 117, "IPC-298": 107}
{"partner": "O=C(Nc1ccccc1)c1cc([N+](=O)[O-])ccc1Cl at 10 µM", "MEL-HO": 52.2, "RVH-421": 105, "A101D": 54.6, "WM115": 73.8, "IPC-298": 189}
{"partner": "C/C(O)=C(\\C#N)C(=O)Nc1cc(Br)ccc1Br at 10 µM", "MEL-HO": 58.7, "RVH-421": 112, "A101D": 64.7, "WM115": 24.5, "IPC-298": 116}
{"partner": "Cc1nc(Nc2ncc(C(=O)Nc3c(C)cccc3Cl)s2)cc(N2CCN(CCO)CC2)n1 at 0.02 µM", "MEL-HO": 107, "RVH-421": 120, "A101D": 103, "WM115": 290, "IPC-298": 48.6}
{"partner": "CO[C@@H]1[C@H](N(C)C(=O)c2ccccc2)C[C@H]2O[C@]1(C)n1c3ccccc3c3c4c(c5c6ccccc6n2c5c31)C(=O)NC4 at 0.4 µM", "MEL-HO": 122, "RVH-421": 59.3, "A101D": 64.7, "WM115": 589, "IPC-298": 64.1}
{"partner": "CC(C)C[C@H](NC(=O)[C@H](Cc1ccccc1)NC(=O)c1cnccn1)B(O)O at 0.005 µM", "MEL-HO": 108, "RVH-421": 103, "A101D": 607, "WM115": 378, "IPC-298": 4690}
{"partner": "c1cc(-c2cnn3cc(-c4ccc(OCCN5CCCCC5)cc4)cnc23)ccn1 at 2 µM", "MEL-HO": 35.0, "RVH-421": 71.8, "A101D": 134, "WM115": 106, "IPC-298": 48.9}
{"partner": "Cn1cc(/C=C2\\C(=O)Nc3cccnc32)c2ccccc21 at 2 µM", "MEL-HO": 53.1, "RVH-421": 90.4, "A101D": 36.4, "WM115": 91.8, "IPC-298": 51.4}

Once more, the final 2:

Partner	MEL-HO	RVH-421	A101D	WM115	IPC-298
c1cc(-c2cnn3cc(-c4ccc(OCCN5CCCCC5)cc4)cnc23)ccn1 at 2 µM	35.0	71.8	134	106	48.9
Cn1cc(/C=C2\C(=O)Nc3cccnc32)c2ccccc21 at 2 µM	53.1	90.4	36.4	91.8	51.4